The target in this experiment is T1, dynamin2/GTPase-GFP fusion protein (human) (UniProt P50570).
T1 sequence: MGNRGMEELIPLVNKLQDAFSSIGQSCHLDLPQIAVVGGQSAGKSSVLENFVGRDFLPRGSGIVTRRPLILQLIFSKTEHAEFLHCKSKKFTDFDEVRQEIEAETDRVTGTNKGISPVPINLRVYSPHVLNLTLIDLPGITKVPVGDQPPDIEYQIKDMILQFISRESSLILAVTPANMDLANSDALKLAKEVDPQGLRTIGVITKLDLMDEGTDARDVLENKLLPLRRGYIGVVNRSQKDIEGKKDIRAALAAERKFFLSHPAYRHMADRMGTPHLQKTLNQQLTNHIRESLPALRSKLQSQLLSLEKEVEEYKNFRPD
In words: co-IP; extracts of pEAK Rapid cells co-expressing dynamin2/GTPase-GFP with Kalirin7 or Kalirin12, immunoprecipitated with polyclonal GFP antibody or control immunoglobulin, blotted with Kalirin-spectrin antibody.

Results are given in words; binding and its absence hold for the method and conditions named. Binding seen in cells or lysates may run through a third protein. Tags and fused reporters may be left off the sequences shown.

Kalirin7 (rat): the binding result was “no binding”.
